Our source for the binding values is patent publication US20020155533A1 (Takeda / Millennium, published 2002).

Amino acid sequences for entries named in this document (tags omitted). A change or cut given only in a name is not applied to a line headed by its entry. Residues count along the entry.
UniProt Q29627: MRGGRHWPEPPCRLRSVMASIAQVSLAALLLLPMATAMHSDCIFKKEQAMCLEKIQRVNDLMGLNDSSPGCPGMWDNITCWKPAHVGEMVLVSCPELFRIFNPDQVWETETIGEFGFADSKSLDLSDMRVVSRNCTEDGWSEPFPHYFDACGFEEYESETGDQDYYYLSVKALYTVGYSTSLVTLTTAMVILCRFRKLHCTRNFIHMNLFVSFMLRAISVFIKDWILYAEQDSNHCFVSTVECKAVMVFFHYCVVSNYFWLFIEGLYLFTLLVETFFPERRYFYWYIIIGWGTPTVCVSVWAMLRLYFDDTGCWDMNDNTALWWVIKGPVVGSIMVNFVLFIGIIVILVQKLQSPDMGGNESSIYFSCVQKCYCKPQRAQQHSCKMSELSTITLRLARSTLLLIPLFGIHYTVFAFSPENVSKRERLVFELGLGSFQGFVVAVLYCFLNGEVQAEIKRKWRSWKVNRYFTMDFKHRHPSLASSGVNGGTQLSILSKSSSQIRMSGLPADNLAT
UniProt P01282, residues 125-152: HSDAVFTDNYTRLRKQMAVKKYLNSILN

The test deals with bovine PACAP receptor protein Type I-A encoded by pBPR-T, expressed in CHO cells (bovine) (UniProt Q29627). Description: competition with 100 pM [125I]-PACAP27, membrane fraction of pBPR-T CHO transformants (FIG. 35).

Results are given in words; binding and its absence hold for the method and conditions named. Some entries that bind do so weakly or less than the wild type.

On to “VIP (vasoactive intestinal peptide) (from UniProt P01282 125-152)”, for which the binding result is “binds”.
